Experimental data reported in patent US12577231B2, “Androgen receptor PROTACS” (GlaxoSmithKline Intellectual Property Development Limited, priority 2023, dated 2026).
Some results were stated once for a whole list of compounds, not compound by compound.

Biological target: T1, Androgen Receptor dual T878A/L702H mutant protein (Homo sapiens, UniProt P10275, L702H/T878A)
T1 construct: host or cells: MDA-PCa-2b
T1 sequence (P10275 1-920 L702H/T878A): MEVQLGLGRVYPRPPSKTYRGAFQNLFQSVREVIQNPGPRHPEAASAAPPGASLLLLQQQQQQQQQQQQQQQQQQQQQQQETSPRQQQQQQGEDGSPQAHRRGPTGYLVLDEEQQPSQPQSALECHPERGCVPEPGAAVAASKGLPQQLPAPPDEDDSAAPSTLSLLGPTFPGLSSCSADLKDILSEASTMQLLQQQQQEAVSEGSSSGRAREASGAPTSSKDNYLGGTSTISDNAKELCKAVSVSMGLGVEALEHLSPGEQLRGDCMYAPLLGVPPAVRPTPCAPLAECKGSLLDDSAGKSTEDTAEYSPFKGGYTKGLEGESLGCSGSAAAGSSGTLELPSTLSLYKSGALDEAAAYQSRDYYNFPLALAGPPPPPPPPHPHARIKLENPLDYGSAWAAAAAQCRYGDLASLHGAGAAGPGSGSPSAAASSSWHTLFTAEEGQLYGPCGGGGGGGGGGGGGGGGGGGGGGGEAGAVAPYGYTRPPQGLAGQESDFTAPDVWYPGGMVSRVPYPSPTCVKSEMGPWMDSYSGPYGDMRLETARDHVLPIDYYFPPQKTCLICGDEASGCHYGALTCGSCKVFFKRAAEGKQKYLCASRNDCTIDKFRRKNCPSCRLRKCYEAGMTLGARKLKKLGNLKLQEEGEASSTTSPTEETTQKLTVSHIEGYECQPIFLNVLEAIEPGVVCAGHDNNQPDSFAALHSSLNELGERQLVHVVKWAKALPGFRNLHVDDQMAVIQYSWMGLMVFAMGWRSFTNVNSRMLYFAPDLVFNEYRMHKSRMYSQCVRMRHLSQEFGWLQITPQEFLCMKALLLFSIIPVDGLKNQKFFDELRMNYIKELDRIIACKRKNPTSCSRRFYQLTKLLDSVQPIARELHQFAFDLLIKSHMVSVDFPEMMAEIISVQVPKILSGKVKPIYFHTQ
Test: Dual Mutant (T878A/L702H) Androgen Receptor Degradation Assay (HTRF, MDA-PCa-2b cells)
Type: cell-based
Conditions: 18 h incubation
Protocol: Degradation of Androgen Receptor dual T878A/L702H mutant protein in human MDA-PCa-2b (ATCC) cells treated with PROTACs was quantified using the HTRF Human Androgen Receptor Detection Kit (PerkinElmer) in 384 well assay plate format. 10 mM DMSO (Sigma-Aldrich) stock solutions of PROTACs were prepared and diluted across an 11 concentration, 3-fold increment range, and 25 nL dispensed into a white opaque bottomed 384 well assay plate (Thermofisher) using an acoustic ECHO dispenser (Labcyte). Cells were cultured in growth medium (BRFF—HPC-1 (Athena ES) supplemented with 20% FBS (Gibco), penicillin 50U/mL and streptomycin 50 μg/mL (Gibco, #15140-122)) in collagen I or poly-D-lysine coated T175 flasks (Corning, #356487 or #356539, respectively). For the assay, cells were harvested from the flask, centrifuged at 200 g for 5 min and then resuspended in the growth medium. 25 μl of cell suspension containing 10,000 cells was dispensed into each well of the assay plate containing the test compounds, which was then incubated for 18 h at 37° C./5% CO2. Control wells were included on each assay plate, with assay medium without cells being the no AR remaining 100% effect control, and cells treated with DMSO vehicle only, without PROTAC, the 0% effect control. After 18 h incubation 8 μl of supplemented lysis buffer from HTRF kit was added to each well and the plate shaken at 500 rpm for 1 h at room temperature. 8 μl of antibody mix in Detection buffer from HTRF kit was added to each well and the plate was incubated for 2 h in dark at mom temperature. The fluorescence was measured at both 620 nm and 665 nm using an excitation wavelength of 337 nm with a PHERAstar microplate reader (BMG Labtech) and the % AR protein remaining in each well was calculated by normalising the HTRF ratio (665 nm signal/620 nm signal) value to the control wells mentioned above. Parameters corresponding to the potency and efficacy estimates of the PROTACs were obtained from these normalised values using curve fitting software (IDBS ActivityBase). These included the DC50 and the Dmax estimates. Two versions of the DC50, called relative DC50 and absolute DC50, were typically generated. These are the inflection point of a fitted 4 parameter sigmoidal response curve and the interpolated concentration of PROTAC corresponding to 50% of the protein being degraded, respectively. The Dmax parameter was the maximum experimentally observed degradation and the asymptote max parameter the fitted response curve asymptote maximum.

| Compound | mean relative pDC50 |
| --- | --- |
| CC1(C)[C@H](NC(=O)c2ccc(N3CCC(CN4CCC(n5ncc6c(N7CCC(=O)NC7=O)cccc65)CC4)CC3)c(F)c2)C(C)(C)[C@H]1Oc1ccc(C#N)c(Cl)c1 [Example 1, N-((1r,3r)-3-(3-Chloro-4-cyanophenoxy)-2,2,4,4-tetramethylcyclobutyl)-4-(4-((4-(4-(2,4-dioxotetrahydropyrimidin-1(2H)-yl)-1H-indazol-1-yl)piperidin-1-yl)methyl)piperidin-1-yl)-3-fluorobenzamide] | ≥ 6.0 |
| CC1(C)[C@H](NC(=O)c2ccc(N3CCC(CN4CCC(n5ncc6c(N7CCC(=O)NC7=O)cccc65)CC4)CC3)c(F)c2)C(C)(C)[C@H]1Oc1cnc(C#N)c(Cl)c1 [Example 3, N-((1r,3r)-3-((5-Chloro-6-cyanopyridin-3-yl)oxy)-2,2,4,4-tetramethylcyclobutyl)-4-(4-((4-(4-(2,4-dioxotetrahydropyrimidin-1(2H)-yl)-1H-indazol-1-yl)piperidin-1-yl)methyl)piperidin-1-yl)-3-fluorobenzamide] | ≥ 6.0 |
| CCOc1cc(O[C@H]2C(C)(C)[C@H](NC(=O)c3ccc(N4CCC(CN5CCC(n6ncc7c(N8CCC(=O)NC8=O)cccc76)CC5)CC4)c(F)c3)C2(C)C)ccc1C#N [Example 4, N-((1r,3r)-3-(4-Cyano-3-ethoxyphenoxy)-2,2,4,4-tetramethylcyclobutyl)-4-(4-((4-(4-(2,4-dioxotetrahydropyrimidin-1(2H)-yl)-1H-indazol-1-yl)piperidin-1-yl)methyl)piperidin-1-yl)-3-fluorobenzamide] | ≥ 6.0 |
| CC1(C)[C@H](NC(=O)c2ccc(N3CCC(CN4CCC(n5ncc6c(N7CCC(=O)NC7=O)cccc65)CC4)CC3)c(F)c2)C(C)(C)[C@H]1Oc1ccc(C#N)c2c1CCCO2 [Example 8, N-((1r,3r)-3-((8-Cyanochroman-5-yl)oxy)-2,2,4,4-tetramethylcyclobutyl)-4-(4-((4-(4-(2,4-dioxotetrahydropyrimidin-1(2H)-yl)-1H-indazol-1-yl)piperidin-1-yl)methyl)piperidin-1-yl)-3-fluorobenzamide] | ≥ 6.0 |
| CC1(C)[C@H](NC(=O)c2ccc(N3CCC(CN4CC[C@H](n5ncc6c(N7CCC(=O)NC7=O)cccc65)C4)CC3)c(F)c2)C(C)(C)[C@H]1Oc1ccc(C#N)c(Cl)c1 [Example 10, N-((1r,3r)-3-(3-Chloro-4-cyanophenoxy)-2,2,4,4-tetramethylcyclobutyl)-4-(4-(((S)-3-(4-(2,4-dioxotetrahydropyrimidin-1(2H)-yl)-1H-indazol-1-yl)pyrrolidin-1-yl)methyl)piperidin-1-yl)-3-fluorobenzamide] | ≥ 6.0 |
| CC1(C)[C@H](NC(=O)c2ccc(N3CCC(CN4CC[C@H](n5ncc6c(N7CCC(=O)NC7=O)cccc65)[C@H](F)C4)CC3)c(F)c2)C(C)(C)[C@H]1Oc1ccc(C#N)c(Cl)c1 [Example 14, N-((1r,3r)-3-(3-Chloro-4-cyanophenoxy)-2,2,4,4-tetramethylcyclobutyl)-4-(4-(((3R,4S)-4-(4-(2,4-dioxotetrahydropyrimidin-1(2H)-yl)-1H-indazol-1-yl)-3-fluoropiperidin-1-yl)methyl)piperidin-1-yl)-3-fluorobenzamide] | ≥ 6.0 |
| COc1cc(O[C@H]2C(C)(C)[C@H](NC(=O)c3ccc(N4CCC(CN5CCC(n6ncc7c(N8CCC(=O)NC8=O)cccc76)CC5)CC4)cc3)C2(C)C)ccc1C#N [Example 15, N-((1r,3r)-3-(4-Cyano-3-methoxyphenoxy)-2,2,4,4-tetramethylcyclobutyl)-4-(4-((4-(4-(2,4-dioxotetrahydropyrimidin-1(2H)-yl)-1H-indazol-1-yl)piperidin-1-yl)methyl)piperidin-1-yl)benzamide] | ≥ 6.0 |
| COc1cc(O[C@H]2C(C)(C)[C@H](NC(=O)c3ccc(N4CCC(CN5CCC(n6ccc7c(N8CCC(=O)NC8=O)cccc76)CC5)CC4)cc3)C2(C)C)ccc1C#N [Example 16, N-((1r,3r)-3-(4-Cyano-3-methoxyphenoxy)-2,2,4,4-tetramethylcyclobutyl)-4-(4-((4-(4-(2,4-dioxotetrahydropyrimidin-1(2H)-yl)-1H-indol-1-yl)piperidin-1-yl)methyl)piperidin-1-yl)benzamide] | ≥ 6.0 |
| COc1cc(O[C@H]2C(C)(C)[C@H](NC(=O)c3ccc(N4CCC(CN5CCC(n6ccc7c(N8CCC(=O)NC8=O)c(F)ccc76)CC5)CC4)c(F)c3)C2(C)C)ccc1C#N [Example 23, N-((1r,3r)-3-(4-Cyano-3-methoxyphenoxy)-2,2,4,4-tetramethylcyclobutyl)-4-(4-((4-(4-(2,4-dioxotetrahydropyrimidin-1(2H)-yl)-5-fluoro-1H-indol-1-yl)piperidin-1-yl)methyl)piperidin-1-yl)-3-fluorobenzamide] | ≥ 6.0 |
| COc1cc(O[C@H]2C(C)(C)[C@H](NC(=O)c3ccc(N4CCC(CN5CCC(n6ncc7c(N8CCC(=O)NC8=O)cc(F)cc76)CC5)CC4)c(F)c3)C2(C)C)ccc1C#N [Example 24, N-((1r,3r)-3-(4-Cyano-3-methoxyphenoxy)-2,2,4,4-tetramethylcyclobutyl)-4-(4-((4-(4-(2,4-dioxotetrahydropyrimidin-1(2H)-yl)-6-fluoro-1H-indazol-1-yl)piperidin-1-yl)methyl)piperidin-1-yl)-3-fluorobenzamide] | ≥ 6.0 |
| CC1(C)[C@H](NC(=O)c2ccc(N3CCC(CN4CCC(n5ccc6c(N7CCC(=O)NC7=O)cccc65)CC4)CC3)c(F)c2)C(C)(C)[C@H]1Oc1ccc(C#N)c2ncccc12 [Example 31, N-((1r,3r)-3-((8-Cyanoquinolin-5-yl)oxy)-2,2,4,4-tetramethylcyclobutyl)-4-(4-((4-(4-(2,4-dioxotetrahydropyrimidin-1(2H)-yl)-1H-indol-1-yl)piperidin-1-yl)methyl)piperidin-1-yl)-3-fluorobenzamide] | ≥ 6.0 |
| CC1(C)[C@H](NC(=O)c2ccc(N3CCC(CN4CCC(n5ccc6c(N7CCC(=O)NC7=O)cc(F)cc65)CC4)CC3)c(F)c2)C(C)(C)[C@H]1Oc1ccc(C#N)c2ncccc12 [Example 32, N-((1r,3r)-3-((8-Cyanoquinolin-5-yl)oxy)-2,2,4,4-tetramethylcyclobutyl)-4-(4-((4-(4-(2,4-dioxotetrahydropyrimidin-1(2H)-yl)-6-fluoro-1H-indol-1-yl)piperidin-1-yl)methyl)piperidin-1-yl)-3-fluorobenzamide] | ≥ 6.0 |
| CC1(C)[C@H](NC(=O)c2cc(F)c(N3CCC(CN4CCC(n5ncc6c(N7CCC(=O)NC7=O)cccc65)CC4)CC3)cc2F)C(C)(C)[C@H]1Oc1ccc(C#N)c2ncccc12 [Example 35, N-((1r,3r)-3-((8-Cyanoquinolin-5-yl)oxy)-2,2,4,4-tetramethylcyclobutyl)-4-(4-((4-(4-(2,4-dioxotetrahydropyrimidin-1(2H)-yl)-1H-indazol-1-yl)piperidin-1-yl)methyl)piperidin-1-yl)-2,5-difluorobenzamide] | ≥ 6.0 |
